Experimental data published in PubChem BioAssay AID1347423 (Functional Genomics Laboratory (NCATS/FGL), 2020).
About 210 (0.4%) of roughly 52,000 sequences were called active.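 How the source made its calls: active means gene whose silencing raises cell survival under the drug, median off-target-corrected z-score across its silencing RNAs 2 or more; inactive means the rest.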 The list shows a part of the results.

Test: Resistance to Poly (ADP-Ribose) Polymerase inhibitor: Gene Identification via Genome-wide siRNA Screen
Details: mouse BRCA2 R2336H ES cells, olaparib, CellTiter-Glo viability; active compounds read high
Summary of the method: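 Genome-wide siRNA screen (3 siRNAs/gene, 20 nM) in mouse ES cells carrying hypomorphic BRCA2 R2336H; olaparib 500 nM added 48 h post-transfection, CellTiter-Glo viability 72 h later. Normalized to plate-median negative control; MAD z-scores, gene median, seed-adjusted.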

| Sequence | z-score |
| --- | --- |
| GCAAGUUUGAGGAUCUAAATT against Gnai2 | inactive: -0.212 |
| CCGAGAAAAAGCAGAAAUCTT against Psma2 | inactive: -3.55 |
| CCGAGCGAGACAAAUGGAGTT against Ing1l | inactive: -0.536 |
| GGUCAAUGGCCACAAGUUCTT against Prkce | inactive: -0.63 |
| GCACUGUGACGAUACAAGATT against Asb1 | inactive: 0.67 |
| GGACAUACCAGAAGAAAUUTT against Sult1d1 | inactive: -0.0198 |
| CGAUCCUCUUUGUUUAUCUTT against Olfr998 | inactive: 1.42 |
| CCUAUGUCCACCACAAAUGTT against AI447904 | inactive: 0.126 |
| CGGUGAUGCGAUAUAAUGUTT against Serpine2 | inactive: 0.0598 |
| CCUACUAUACAAUUCUGCUTT against Clns1a | inactive: -0.00478 |
| GCACAAUACUGUGAUCGAATT against B130021E18 | inactive: 0.105 |
| GCUUACAAGCUGGUAUCAUTT against LOC333669 | inactive: -0.358 |
| GGCCAUGAAUGGAAUGUACTT against Slco1a1 | inactive: -2.02 |
| GGGCUACAGCAUGUAUGAGTT against BC057627 | active: 2.38 |
| GCAAGUGAAUACCAGAUCCTT against Pcdhac1 | inactive: 0.553 |
| GGUGAACUAGAAAUCAGAUTT against 9330154K18Rik | inactive: 0.503 |
| GGAAUUUCUGUGCAUUAAATT against Astn2 | inactive: -0.794 |
| GCAAGGGAAUGUGUGCCUUTT against Olfr16 | inactive: 1.1 |
| CCUUCGAAGUGCUAUGGGATT against Apbb1 | inactive: 2.34 |
| GGAGCUCAACAGUGAGAACTT against 4932439K10Rik | inactive: -0.17 |
| GGACUUACAUGGAAUUUUATT against Snrp116 | inactive: -2.59 |
| GGAUCUUGUAGAGCAAAAUTT against Rnmt | inactive: 0.609 |

| Sequence | z-score |
| --- | --- |
| GCUAGUGGUAAGUCAACCATT against D6Ertd349e | inactive: -0.584 |
| GCGAAUGCUUAAAAUAGCATT against Cdv1 | inactive: 0.326 |
| GGUGAUAUUCCUAUCUAAATT against Mbnl1 | inactive: -0.474 |
| GGAUGAUAUGGUAACCUGCTT against Rnf137 | inactive: 1.2 |
| CUAGAAGUGAUGGCUUUCATT against Olfr814 | inactive: -2 |
| GGCAAAGAAAGGCAAGCCUTT against Cyp3a11 | inactive: -0.079 |
| GGUGCUGCACAAAUACAUATT against 5630401D24Rik | inactive: 0.876 |
| GGAGGAAGAAACAACAAUGTT against BB146404 | inactive: -0.439 |
| GGCUAGAAUGCACAUUUUATT against 4930438D12Rik | inactive: 1.39 |
| GCAGGCAUCGUGUUUACCATT against Cdh20 | inactive: 0.568 |
| GGGUUCCUAAAUAGAAAAUTT against Nanos1 | inactive: 0.336 |
| GGUCACCCAUUUCUUUUGUTT against Olfr361 | inactive: 0.671 |
| GGCUAUGGCAAGCUAAGCATT against Pex2 | inactive: -1.2 |
| CGGCAGGAUGAAUGAGAUCTT against Bccip | inactive: 0.692 |
| GGAGAUAACGUACAUCAACTT against Sfrp2 | inactive: 1.58 |
| GCAUCUAUCAAUAAGGAGUTT against Lphn1 | inactive: -0.442 |
| GGUGGUCUUUUCCCAGCAGTT against D430026P16Rik | inactive: 0.206 |
| CCUAAAUCCUUUUGAACCCTT against D10Ertd641e | inactive: 0.559 |
| GGAUGGUGUAGCACAUUUCTT against Tulp2 | inactive: 0.46 |
| GGCGAAGCACUCGAAUUUCTT against Slc23a2 | inactive: 0.832 |
| GCCUUCGUCUCCAAGUAUATT against Plagl1 | inactive: -1.09 |
| GGACAAUCAGACCCUGUCATT against 2010315L10Rik | inactive: -2.42 |

Some values from the list.
Under z-score, GGAGGAAGAAACAACAAUGTT against BB146404 has the entry inactive: -0.439
Under z-score, GGGUUCCUAAAUAGAAAAUTT against Nanos1 has the entry inactive: 0.336

(next part)

| Sequence | z-score |
| --- | --- |
| GGACUCAUAUUCGUAUGUATT against Zfr | inactive: 0.596 |
| GGCUUUUAGCUACCUUGUGTT against AW209491 | inactive: -0.171 |
| GGAAAGCUCAAUUGGUUCGTT against Pcnt1 | inactive: -2.86 |
| GGGAGAAGAAAAGAAGACATT against Cldn23 | inactive: -0.34 |
| CGUGCCACUUUUACCGUCCTT against Zdhhc8 | inactive: 1.71 |
| GGAAGCACUGAUGAAUUAUTT against Phca | inactive: -1.66 |
| GGAGCUAGACAAAACUAAATT against AJ543404 | inactive: 0.44 |
| GGAGAUCUAUAAGGAUAGATT against Flot1 | inactive: -0.608 |
| GGAGGAAAAUGAUGGAGAGTT against 2610022K04Rik | inactive: -0.0281 |
| GCACACCAGCGACAUUCUATT against Aipl1 | inactive: 1.25 |
| CGAUCCAGUAUUCGAAGCATT against Sqstm1 | inactive: 0.0198 |
| GGAUUGGAUCCGAGACCAATT against Fbxo23 | inactive: 0.0529 |
| GCAGACUCCCAUGUGGAUUTT against 1700067K01Rik | inactive: -0.242 |
| CCUUGAGUGAAAAAGGUUUTT against Top2b | inactive: -0.151 |
| GGUUGUGGUAGUCCGCUAUTT against Mrpl2 | inactive: 0.043 |
| GGAAUUUUCUUCAUUUGGATT against Pabpc5 | inactive: -0.17 |
| GGGCGUGUUAUCAAUGUCUTT against Dhrs9 | inactive: 0.149 |
| GGUACUGCAACUACAUGAUTT against Rnase12 | inactive: 2.77 |
| CCUUUAUGAAUGAACAGGGTT against Cnot7 | inactive: 0.267 |
| UCUUUGUGGUAGCCAUCCUTT against Olfr129 | inactive: -1.14 |
| GGCCAUUUCCAGCUUGAGUTT against 4930457P18Rik | inactive: -1.06 |
| CCAAGAUCUAUGGAGGACGTT against Rps19 | inactive: -1.98 |
